In PubChem BioAssay AID248 (DTP/NCI, 2004):
The list is a part of this screen's results and no random one: it gathers tests that were run many times, whatever their T/C, doses with no T/C, and many T/C values between a quarter and a half above the control. Further doses and runs are listed elsewhere. T/C gives the treated animals as a percentage of the vehicle group. Some doses have a count of surviving animals in place of a T/C: the source files T/C as zero there, which appears to mark a toxic dose or a test without result, not a measured value. Some survivor counts are full or nearly so, which does not show that the dose was tolerated: the source hardly ever lists a survival T/C far under the control, and the zero likely stands for such cases as well. Survivors were counted at the toxicity check, usually on the fifth day, unless a day is given; later deaths do not show. Schedule codes are those of the source, read here as Q, the interval in days (D) or hours (H), X, the number of doses. Some entries were tested several times; their values stand side by side, smallest first. Some schedules carry Z or #; the key to these is not given. For survival time, this PubChem deposit counts one and a half times the control or more as active, and values a quarter to a half above the control carry no call in these data; other NCI protocols may use other cut-offs.

System: L1210 leukemia ip in BDF1 mice, survival T/C
Assay: NCI In Vivo Anticancer Drug Screen. Data for tumor model L1210 Leukemia (intraperitoneal) in B6D2F1 (BDF1) mice
Settings: T/C endpoint: mean survival time, higher T/C = longer survival
[1] = dose: 300.0 mg/kg/injection, schedule: Q01DX001 (ip), vehicle: carboxymethylcellulose (CMC)
[2] = dose: 400.0 mg/kg/injection, schedule: Q01DX009 (ip), vehicle: saline
[3] = dose: 50.0 mg/kg/injection, schedule: Q01DX009 (ip), vehicle: saline with Tween-80
[4] = dose: 100.0 mg/kg/injection, schedule: Q01DX009 (ip), vehicle: saline with Tween-80
[5] = dose: 200.0 mg/kg/injection, schedule: Q01DX001 (ip), vehicle: saline
[6] = dose: 400.0 mg/kg/injection, schedule: Q01DX001 (ip), vehicle: saline

Q: For `CN=C(N)c1ccc(N=C(N)c2ccc(-c3ccc(C(N)=Nc4ccc(C(N)=NC)cc4)cc3)cc2)cc1`, which T/C (dose: 9.0 mg/kg/injection, schedule: Q01DX Z (ip), vehicle: carboxymethylcellulose (CMC)) is on record?
A: The T/C was 143 % of control.

Q: What about the survivor count (dose: 400.0 mg/kg/injection, schedule: Q01DX Z (oral), vehicle: water) of the same molecule?
A: Its survivor count is 0 of 6.

Q: For `CCCCCCCCCCCCNC(=O)C[N+](C)(C)Cc1ccc2c(c1)CCCC2`, which survivor count (dose: 10.0 mg/kg/injection, schedule: Q01DX009 (ip), vehicle: saline with Tween-80) is on record?
A: Its survivor count is 2 of 6.

Q: `Fc1ccc(NC(=S)N/N=C\c2ccc(Cl)cc2Cl)cc1` was tested. Which survivor count (dose: 480.0 mg/kg/injection, schedule: Q01DX Z (ip), vehicle: methylcellulose (MC)) did it give?
A: Its survivor count is 2 of 6.

Q: `CCN(CC)C(=O)C(N)Cc1ccc(OC)c(N(CCCl)CCCl)c1` (stereo unspecified) was tested. Which T/C (dose: 33.0 mg/kg/injection, schedule: Q01DX001 (ip), vehicle: carboxymethylcellulose (CMC)) did it give?
A: The T/C was 125 % of control.

Q: What about the T/C (dose: 33.0 mg/kg/injection, schedule: Q01DX009 (ip), vehicle: carboxymethylcellulose (CMC)) of the same molecule?
A: The T/C was 131 % of control.

Q: And the T/C (dose: 50.0 mg/kg/injection, schedule: Q01DX001 (ip), vehicle: carboxymethylcellulose (CMC))?
A: Its T/C is 125 % of control.

Q: What about the T/C (dose: 75.0 mg/kg/injection, schedule: Q01DX001 (ip), vehicle: carboxymethylcellulose (CMC), evaluated on day 30) of the same molecule?
A: Its T/C is 145 % of control.

Q: What about the T/C (dose: 75.0 mg/kg/injection, schedule: Q01DX001 (ip), vehicle: carboxymethylcellulose (CMC), run until all animals had died) of the same molecule?
A: Its T/C is 138 % of control.

Q: And the T/C (dose: 75.0 mg/kg/injection, schedule: Q01DX001 (ip), vehicle: saline)?
A: The T/C was 141 % of control.

Q: What about the survivor count (dose: 112.5 mg/kg/injection, schedule: Q01DX009 (ip), vehicle: carboxymethylcellulose (CMC)) of the same molecule?
A: The survivor count was 4 of 6.

Q: What about the survivor count [1] of the same molecule?
A: The survivor count was 1 of 6.

Q: `O=C(CBr)c1cccc2c1Nc1ccccc1S2` was tested. Which survivor count (dose: 150.0 mg/kg/injection, schedule: Q01DX001 (ip), vehicle: saline) did it give?
A: The survivor count was 0 of 6.

Q: What about the survivor count (dose: 300.0 mg/kg/injection, schedule: Q01DX001 (ip), vehicle: saline) of the same molecule?
A: Its survivor count is 1 of 6.

Q: `COc1ccc(OC)c(NC(=O)N(CCC#N)C2CCCCC2)c1` was tested. Which survivor count (dose: 400.0 mg/kg/injection, schedule: Q04DX003 (ip), vehicle: Klucel (hydroxypropylcellulose) (HPC)) did it give?
A: The survivor count was 6 of 6.

Q: For `c1coc(-c2cnc3ccccc3n2)c1`, which survivor count [1] is on record?
A: The survivor count was 0 of 6.

Q: For `CCOP(=O)(OCC)SC=C(Cl)Cl`, which survivor count (dose: 200.0 mg/kg/injection, schedule: Q04DX002 (ip), vehicle: saline with Tween-80) is on record?
A: The survivor count was 2 of 3.

Q: What about the survivor count (dose: 400.0 mg/kg/injection, schedule: Q04DX002 (ip), vehicle: saline with Tween-80) of the same molecule?
A: The survivor count was 0 of 3.

Q: `C/C=C\C#N` was tested. Which survivor count [2] did it give?
A: The survivor count was 0 of 6.

Q: And the survivor count (dose: 400.0 mg/kg/injection, schedule: Q04DX003 (ip), vehicle: saline)?
A: The survivor count was 0 of 6.

Q: With `O=C(Nc1cccc(C(F)(F)F)c1)Nc1cc([N+](=O)[O-])ccc1Cl` as the molecule, how does the survivor count (dose: 200.0 mg/kg/injection, schedule: Q01DX009 (ip), vehicle: Klucel (hydroxypropylcellulose) (HPC)) read?
A: The survivor count was 6 of 6.

Q: For `COc1ccc(N(N=O)C(C)C)cc1`, which survivor count [3] is on record?
A: Its survivor count is 3 of 3.

Q: With `COc1cc2cnc3c4cc(OC)c(OC)cc4ccc3c2cc1OC` as the molecule, how does the survivor count [2] read?
A: Its survivor count is 5 of 6.

Q: How did the survivor count [3] turn out when `CSCC1OC(n2cnc3c(N)nc(Cl)nc32)C(O)C1O` (stereo unspecified) was run?
A: The survivor count was 1 of 6.

Q: And the survivor count [4]?
A: The survivor count was 0 of 6.

Q: What about the survivor count (dose: 200.0 mg/kg/injection, schedule: Q01DX001 (ip), vehicle: saline with Tween-80) of the same molecule?
A: The survivor count was 2 of 6.

Q: What about the survivor count (dose: 400.0 mg/kg/injection, schedule: Q01DX001 (ip), vehicle: saline with Tween-80) of the same molecule?
A: Its survivor count is 2 of 6.

Q: How did the survivor count (dose: 400.0 mg/kg/injection, schedule: Q01DX009 (ip), vehicle: saline with Tween-80) turn out when `Cc1cc2oc(C)[n+](Cc3ccccc3)c2cc1C` was run?
A: The survivor count was 4 of 6 and 5 of 6.

Q: `COc1cc(CNCc2cc(OC)c(OC)c(OC)c2)cc(OC)c1OC` was tested. Which survivor count [5] did it give?
A: The survivor count was 2 of 4.

Q: And the survivor count [6]?
A: Its survivor count is 0 of 4.

Q: What does the source list for `NNC(=O)COc1ccccc1`?
A: survivor count [5]: 1 of 6; survivor count [6]: 0 of 6

Q: What does the source list for `O=C(CC1(Cl)C(F)(F)C(F)(F)C1(F)F)c1ccccc1`?
A: survivor count [3]: 0 of 6; survivor count [4]: 0 of 6

Q: How did the survivor count (dose: 400.0 mg/kg/injection, schedule: Q01DX001 (ip), vehicle: carboxymethylcellulose (CMC)) turn out when `O=C(O)C1C2C=CC(C2)C1(C(=O)O)c1ccccc1` (stereo unspecified) was run?
A: The survivor count was 2 of 6.

Q: What about the survivor count (dose: 400.0 mg/kg/injection, schedule: Q04DX003 (ip), vehicle: carboxymethylcellulose (CMC)) of the same molecule?
A: The survivor count was 1 of 6.
